Source: patent US20140073556A1 (published 2014)
Results are given in words; binding and its absence hold for the method and conditions named. Some results given as binding are weak or reduced against the parent protein; the word gives no strength.

By UniProt entry, the sequences of proteins in these tests, tags left out. Where a name states a change or a piece, a line headed by the entry shows the natural chain unless it says otherwise. Residues count along the entry.
UniProt P14778, residues 18-336: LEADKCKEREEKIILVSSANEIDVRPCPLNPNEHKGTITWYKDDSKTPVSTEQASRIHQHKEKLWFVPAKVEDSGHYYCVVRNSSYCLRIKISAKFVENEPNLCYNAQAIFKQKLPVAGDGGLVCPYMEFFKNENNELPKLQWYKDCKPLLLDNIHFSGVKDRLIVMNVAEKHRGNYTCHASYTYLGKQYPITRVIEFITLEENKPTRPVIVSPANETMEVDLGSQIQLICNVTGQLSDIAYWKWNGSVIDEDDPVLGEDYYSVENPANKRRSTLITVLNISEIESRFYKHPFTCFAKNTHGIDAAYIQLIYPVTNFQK
UniProt P18510: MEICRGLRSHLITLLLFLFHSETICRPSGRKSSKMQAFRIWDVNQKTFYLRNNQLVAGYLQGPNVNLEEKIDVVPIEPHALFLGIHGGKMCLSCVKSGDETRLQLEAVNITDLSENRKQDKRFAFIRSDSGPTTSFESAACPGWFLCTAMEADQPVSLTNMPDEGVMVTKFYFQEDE

Legend:
[1] = target: recombinant protein comprising the whole extracellular part of IL1RI (UniProt P14778); assay: SPR (BiaCore 2000), IL1RI ectodomain immobilised on CM5 chip
[2] = target: recombinant protein comprising the whole extracellular part of IL1RI (UniProt P14778); assay: SPR, IL1RI immobilised on sensor chip

binding [1]: binds
binding [2]: binds
Substance: IL1Ra protein (IL-1 receptor antagonist protein) (from UniProt P18510 26-177) (ligand)
